Laboratory results reported in publication PMC10333293, “Membrane recruitment of the polarity protein Scribble by the cell adhesion receptor TMIGD1” (Communications Biology, 2023).
These are yes or no findings as the source states them, for the method shown. In cells and extracts the contact can be indirect. Binding can be weak; no strength is given.

Molecular target: T1, hTMIGD1 full length (AA 1-262) (human) (UniProt Q6UXZ0)
T1 sequence: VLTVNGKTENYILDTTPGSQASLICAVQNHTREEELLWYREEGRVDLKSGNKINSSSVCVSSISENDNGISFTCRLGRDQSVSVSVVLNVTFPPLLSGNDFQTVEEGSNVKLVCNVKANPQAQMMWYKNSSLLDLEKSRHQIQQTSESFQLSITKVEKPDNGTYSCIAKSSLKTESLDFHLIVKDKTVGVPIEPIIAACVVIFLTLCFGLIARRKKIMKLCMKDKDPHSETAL
Assay: co-IP; HEK293 cells stably transfected with TMIGD1 constructs and transiently transfected with Scrib constructs, Erbin or Lano/LRRC1; IP with anti-TMIGD1 antibodies; in one experiment with or without TAK-243; lysis in 25 mM Tris-HCl pH 7.4, 1% NP-40, 150 mM NaCl, 5% glycerol

With “hScrib/WT (AA 2-1630) (from UniProt Q14160-1)” the binding was “binds weakly”.

For “hScrib/PDZ (AA 665-1630) (from UniProt Q14160-1) (domain or fragment)”, the binding was “binds”.
